# Data published in PubChem BioAssay AID624297 (National Center for Advancing Translational Sciences (NCATS), 2012).
# Values joined by “and” are separate entries in the source; they are usually repeats but may differ in a detail not shown here. Identical values can stand only once. Out of some 340,000 compounds screened, about 6,200 (1.8%) were called active. Inconclusive means that the source gave no clear call. Such entries were picked first, then a sample of the others. The call rests on the fitted dose curve; in most records, active means well fitted activation curve with a large enough effect; inconclusive means small, poorly fitted or top-dose-only effect; inactive means no such curve, though single readings can be large or run the other way. Where the call is inconclusive, the potency comes from a doubtful curve fit. Some compounds were tested as several samples or in several runs, with calls that do not always agree.
# Test: A quantitative high throughput screen for small molecules that induce DNA re-replication in SW480 colon adenocarcinoma cells. Further: nearly all actives have a fitted effect of over 55% in size. On re-replication activation: % of control where 0% means no effect.
# Settings: Hoechst DNA content imaging, 48 h; re-replication activation: at 46.1 µM (top of the series) unless noted
# Summary of the method: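 Cells (250 per well) received 23 nL compound or DMSO by pin tool and were kept 48 hr at 37 C, 5% CO2. Nuclei were then stained with Hoechst for 40 min and scanned for DNA content.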
# Potency means the concentration at half of the fitted maximal effect.
Structure (SMILES),Potency,re-replication activation
O=C(/C=C/c1cn(-c2ccccc2)nc1-c1ccccc1)Nc1ccc(C(=O)O)cc1,"inconclusive: 0.116 µM [activator, full curve, poor fit]",
CC1(C)CCC(=O)N2CC[C@H]3C[C@H](OC(=O)Nc4ccc(Br)cc4)C[C@@H]1[C@H]32,"inconclusive: 3.66 µM [activator, single point]",
C/C(=N/NC(=O)c1ccoc1C)c1ccc(NC(=O)c2ccncc2)cc1,"inconclusive: 14.6 µM [activator, partial curve, poor fit]",
O=S(=O)(c1ccc(SCc2ccccc2)nc1)N1CCCCC1,"inconclusive: 20.6 µM [activator, partial curve, poor fit]",
CCOc1ccc(NS(=O)(=O)c2ccc(NS(=O)(=O)c3ccccc3)cc2)cc1,"inconclusive: 29.1 µM [activator, single point]",
c1cnc(N2CCN(Cc3ccc4c(c3)OCO4)CC2)nc1,"inconclusive: 1.41 µM [activator, partial curve]",
CNC(=O)c1ccc(Nc2nnc(-c3ccc(C)c(S(=O)(=O)NCC4CCCO4)c3)c3ccccc23)cc1 (configuration not stated),,inactive: 4.09%
COc1cc2c(C(=O)N3CCN(C4CCCCC4)CC3)cn(CC(C)C)c(=O)c2cc1OC,"inconclusive: 29.1 µM [activator, single point]",
CCCn1c(-c2ccc(F)cc2)cnc1SCC(=O)O,"inconclusive: 1.16 µM [activator, single point]",
O=C(Nc1nccs1)c1cn(-c2ccccc2)nc1-c1ccncc1,"inconclusive: 18.4 µM [activator, partial curve, poor fit]",
CNC(=O)c1c(NC(=O)C2=COCCO2)sc2c1CCCC2,"inconclusive: 0.231 µM [activator, full curve, poor fit]",
OCCN(CCO)CC(O)COc1ccc(C23CC4CC(CC(C4)C2)C3)cc1 (configuration not stated),"inconclusive: 29.1 µM [activator, single point]",
O=C(c1ccc(SCc2ccco2)c([N+](=O)[O-])c1)N1CCOCC1,,inactive: -14.4%
COc1ccc(C(C(=O)NC2CCCC2)N(C(=O)c2ccoc2C)c2ccc(C)c(C)c2)cc1 (configuration not stated),"inconclusive: 29.1 µM [activator, partial curve, poor fit]",
Cc1ccc(SCCC(=O)Nc2ccc(Br)c(C)c2)cc1,,inactive: -29.3%
COC(=O)CSc1nc2c(c(-c3ccc(O)cc3)c1C#N)CCCC2,"inconclusive: 14.6 µM [activator, partial curve, poor fit]",
O=C(CN1CCN(Cc2ccccc2F)CC1)Nc1ccccc1Cl,,inactive: -16.3%
CC(C)(C)NS(=O)(=O)c1ccc2nc(NC(=O)Cc3cccs3)sc2c1,"inconclusive: 16.4 µM [activator, single point]",
N#Cc1ccc(-c2ccccc2)nc1SCC(=O)c1cc2ccccc2oc1=O,"inconclusive: 28.2 µM [activator, single point]",
CN(CCC#N)C(=O)COC(=O)c1c2c(nc3ccccc13)/C(=C/c1ccco1)CC2,active: 11.6 µM,
Cc1sc2nc(CSc3nnnn3-c3ccc(Cl)cc3)[nH]c(=O)c2c1C,"inconclusive: 20.6 µM [activator, single point]",
Cc1noc(C)c1S(=O)(=O)N(CC(=O)Nc1ccc2c(c1)OCCO2)c1ccc(C(C)C)cc1,"inconclusive: 4.61 µM [activator, full curve]",
O=C(NCC(c1ccco1)N1CCCCC1)c1ccc([N+](=O)[O-])s1 (configuration not stated),"inconclusive: 20.6 µM [activator, single point]",

Structure (SMILES),Potency,re-replication activation
COc1ccc(NC(=O)NNC(=O)C(C)Oc2ccc3ccccc3c2)cc1 (configuration not stated),,inactive: 2.8%
CCc1ccc(O)c(N=Cc2cccc(C)c2O)c1,"inconclusive: 18.4 µM [activator, single point]",
COC(=O)c1ccc(N2CCN(C(=O)c3ccccc3)CC2)c(NC(C)=O)c1,,inactive: -9.37%
COc1ccc(NS(=O)(=O)c2ccc(C)c(C(=O)NNC(=O)c3ccccc3O)c2)cc1,"inconclusive: 23.1 µM [activator, single point]",
C[C@](N)(Cc1ccc(O)c(O)c1)C(=O)O,active: 2.82 µM,
CN1CCN(c2ccc(-c3ccc4ccccc4n3)cc2)CC1,"inconclusive: 16.4 µM [activator, single point]",
CCCc1c(C(=O)N/N=C/C(C)=C/c2ccco2)nnn1-c1nonc1N,"inconclusive: 29.1 µM [activator, single point]",
COc1ccc(Cl)cc1NC(=O)Cn1nnc(C(=O)NCc2ccc3c(c2)OCO3)c1N,"inconclusive: 14.6 µM [activator, single point]",
O=C(Nc1ccncc1)C1CCN(S(=O)(=O)c2cccc(C(F)(F)F)c2)CC1,,inactive: -9.89%
CCC(=O)N1CCc2cc(S(=O)(=O)CCC(=O)NCc3ccco3)ccc21,"inconclusive: 5.8 µM [activator, full curve, poor fit]",
O=C(CN1CCCCCC1)Nc1ccc(Cl)cn1,,inactive: -3.11%
O=C(CCC1CCCCC1)Nc1ccccc1C(=O)N1CCOCC1,"inconclusive: 14.6 µM [activator, single point]",
CCN(CC(=O)Nc1ccc(NC(C)=O)cc1)C(=O)/C=C/c1ccco1,,inactive: -34.9%
COc1ccccc1N=C1SC(C(=O)Nc2cccc(Cl)c2Cl)C(N)=C1C(N)=O (configuration not stated),active: 23.1 µM,
O=C(Nc1ccc(N2CCOCC2)c(Cl)c1)c1ccc(F)cc1,,inactive: -7.3%
COc1ccc(OC)c(CN2CCCC(CO)C2)c1 (configuration not stated),"inconclusive: 23.1 µM [activator, partial curve, poor fit]",
CC(C)(C)OC(=O)N[C@@H](Cc1c[nH]c2ccccc12)c1nnc(SCC(N)=O)o1,,inactive: -14.2%
CC(=O)c1ccc(S(=O)(=O)Nc2cccc(S(=O)(=O)NC3=NCCC3)c2)cc1,"inconclusive: 29.1 µM [activator, single point]",
O=c1c(Cl)c(O)c2cccc3c4ccccc4n1c23,,inactive: -3.55%
O=C(COC(=O)C1CCN(c2ccc(C(F)(F)F)cn2)CC1)Nc1cc(F)ccc1F,,inactive: -7.51%
COc1ccc(NC(=S)Nc2ccc3cn[nH]c3c2)cc1,"inconclusive: 20.6 µM [activator, single point]",
CCCn1c(SCC(=O)Nc2ccccc2Cl)n[nH]c1=O,,inactive: -0.0501%
COc1cccc(NC(=O)Cn2cnc3c(oc4nc5c(cc43)CCCC5)c2=O)c1,"inconclusive: 0.731 µM [activator, full curve, poor fit]",

Structure (SMILES),Potency,re-replication activation
COC(=O)C1=CN(Cc2ccc(OC)cc2)C=C(C(=O)OC)C1c1ccc(O)c(OC)c1,"inconclusive: 25.9 µM [activator, single point]",
Cn1nnnc1SCCNCc1ccccc1OCc1ccccc1,"inconclusive: 16.4 µM [activator, partial curve, poor fit]",
Cn1cc(/C=N/Nc2ccccc2)c2ccccc21,"inconclusive: 29.1 µM [activator, single point]",
COc1ccc(OCc2cc(C(=O)NCCc3ccccc3)no2)c(Cl)c1,active: 20.6 µM,
C/C=C/c1cc(OC)c2c(c1)[C@H](C)[C@@H](c1ccc(O)c(OC)c1)O2,"inconclusive: 25.9 µM [activator, single point]",
CC(NC(=O)c1ccco1)C(=O)N(C)Cc1ccc(C(F)(F)F)cc1 (configuration not stated),,inactive: 10.6%
O=C(NNC(=O)C1CCN(S(=O)(=O)c2ccc(Cl)cc2)CC1)c1ccccc1O,"inconclusive: 18.4 µM [activator, partial curve, poor fit]",
COc1ccccc1N1CCN(C(=O)c2ccc(N3CCCCS3(=O)=O)cc2)CC1,,inactive: -1.63%
O=C(CCN1C(=O)/C(=C\c2ccccc2)SC1=S)NNC(=O)c1ccncc1,"inconclusive: 4.11 µM [activator, full curve, poor fit]",
CCN(c1ccccc1)S(=O)(=O)c1ccc(NCC2COc3ccccc3O2)nc1 (configuration not stated),"inconclusive: 29.1 µM [activator, single point]",
COc1cccc(/C=C/C(=O)OC(C)C(=O)Nc2c(C)n(C)n(-c3ccccc3)c2=O)c1 (configuration not stated),"inconclusive: 2.06 µM [activator, partial curve, poor fit]",
Cc1ccc(-n2c(Cc3cccn3C)nnc2SCC(=O)NCc2ccc3c(c2)OCO3)cc1,,inactive: -1.99%
COc1ccc(-c2c(=O)n(OC)c3ccccc3[n+]2[O-])cc1OC,"inconclusive: 29.1 µM [activator, single point]",
O=C(/C=C/NNC(=O)c1ccc(Cl)cc1)c1ccccc1,"inconclusive: 29.1 µM [activator, single point]",
Cn1cccc1/C=C1\SC(=S)N(NC(=O)c2ccccc2)C1=O,,inactive: -3.94%
Cc1ccc(S(=O)(=O)N[C@@H](Cc2ccccc2)C(=O)CCl)cc1,"inconclusive: 20.6 µM [activator, single point] and inconclusive: 580 nM [activator, partial curve, poor fit]",
CN(Cc1ccco1)S(=O)(=O)c1ccc2c(c1)CCN2C(=O)CCC(=O)O,,inactive: -51.9%
O=C1c2ccccc2NC(c2ccc(-c3cccc(Cl)c3)o2)N1O (configuration not stated),"inconclusive: 18.4 µM [activator, single point]",
CC(C(O)C12CC3CC(CC(C3)C1)C2)N1CCCCC1 (configuration not stated),,inactive: -2.58%
COc1ccc2[nH]c(C(=O)O)c(NS(=O)(=O)c3ccc(F)cc3)c2c1,"inconclusive: 0.92 µM [activator, full curve, poor fit]",
CC(NC(=O)c1ccc2ccccc2n1)c1ccc(Br)cc1 (configuration not stated),"inconclusive: 29.1 µM [activator, single point]",
